The record followed here is patent publication EP1033402A1.

Sequences of proteins named here, by UniProt entry; tags and fusion partners are left off. A change or cut given only in a name is not applied to a line headed by its entry.
UniProt P11802: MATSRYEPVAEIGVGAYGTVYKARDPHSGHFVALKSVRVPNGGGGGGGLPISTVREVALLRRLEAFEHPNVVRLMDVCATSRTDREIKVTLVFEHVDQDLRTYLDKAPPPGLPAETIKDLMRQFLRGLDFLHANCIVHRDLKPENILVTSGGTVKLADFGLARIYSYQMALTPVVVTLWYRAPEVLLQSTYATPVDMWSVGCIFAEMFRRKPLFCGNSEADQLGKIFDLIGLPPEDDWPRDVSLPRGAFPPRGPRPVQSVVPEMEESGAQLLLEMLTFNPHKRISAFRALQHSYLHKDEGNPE
UniProt P24385: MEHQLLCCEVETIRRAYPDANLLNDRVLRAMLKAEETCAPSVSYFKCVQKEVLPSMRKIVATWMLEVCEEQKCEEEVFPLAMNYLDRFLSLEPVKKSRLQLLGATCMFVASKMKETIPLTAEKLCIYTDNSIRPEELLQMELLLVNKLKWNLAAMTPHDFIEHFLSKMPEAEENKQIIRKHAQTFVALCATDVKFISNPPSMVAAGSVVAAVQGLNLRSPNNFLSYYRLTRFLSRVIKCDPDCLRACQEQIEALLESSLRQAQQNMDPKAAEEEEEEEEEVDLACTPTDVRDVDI

For the assay, the target named is CDK4 (UniProt P11802). Briefly: lysate of C33A cells transfected with p16BP1 vector; immunoprecipitation with Cyclin D1 antibody, Western blot with CDK4 antibody (Santa Cruz H303). (In general: Immunoblotting shows a protein as a band on a membrane.)

Results are given in words; binding and its absence hold for the method and conditions named. Some results given as binding are weak or reduced against the parent protein; the word gives no strength.

On to “Cyclin D1 (endogenous, C33A cells) (from UniProt P24385 1-295)”, for which the binding entry is “binds”.
